doi:10.1101/421909
Results are given in words; binding and its absence hold for the method and conditions named. Binding seen in cells or lysates may run through a third protein. Some binding calls cover weakened binding; strength is not graded here. Sequences can lack the tags named with a protein.

The chains behind the UniProt entries cited, without tags or fusion partners. Residues count along the entry.
UniProt O14656, 21-332: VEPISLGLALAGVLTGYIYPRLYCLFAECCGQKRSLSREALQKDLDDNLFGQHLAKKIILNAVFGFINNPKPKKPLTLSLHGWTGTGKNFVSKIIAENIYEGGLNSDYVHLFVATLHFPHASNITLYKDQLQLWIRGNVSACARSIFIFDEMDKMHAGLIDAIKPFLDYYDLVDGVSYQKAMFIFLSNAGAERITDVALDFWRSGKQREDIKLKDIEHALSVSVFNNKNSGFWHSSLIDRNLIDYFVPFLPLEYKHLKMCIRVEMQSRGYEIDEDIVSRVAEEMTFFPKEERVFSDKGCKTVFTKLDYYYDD
UniProt P39685, whole entry: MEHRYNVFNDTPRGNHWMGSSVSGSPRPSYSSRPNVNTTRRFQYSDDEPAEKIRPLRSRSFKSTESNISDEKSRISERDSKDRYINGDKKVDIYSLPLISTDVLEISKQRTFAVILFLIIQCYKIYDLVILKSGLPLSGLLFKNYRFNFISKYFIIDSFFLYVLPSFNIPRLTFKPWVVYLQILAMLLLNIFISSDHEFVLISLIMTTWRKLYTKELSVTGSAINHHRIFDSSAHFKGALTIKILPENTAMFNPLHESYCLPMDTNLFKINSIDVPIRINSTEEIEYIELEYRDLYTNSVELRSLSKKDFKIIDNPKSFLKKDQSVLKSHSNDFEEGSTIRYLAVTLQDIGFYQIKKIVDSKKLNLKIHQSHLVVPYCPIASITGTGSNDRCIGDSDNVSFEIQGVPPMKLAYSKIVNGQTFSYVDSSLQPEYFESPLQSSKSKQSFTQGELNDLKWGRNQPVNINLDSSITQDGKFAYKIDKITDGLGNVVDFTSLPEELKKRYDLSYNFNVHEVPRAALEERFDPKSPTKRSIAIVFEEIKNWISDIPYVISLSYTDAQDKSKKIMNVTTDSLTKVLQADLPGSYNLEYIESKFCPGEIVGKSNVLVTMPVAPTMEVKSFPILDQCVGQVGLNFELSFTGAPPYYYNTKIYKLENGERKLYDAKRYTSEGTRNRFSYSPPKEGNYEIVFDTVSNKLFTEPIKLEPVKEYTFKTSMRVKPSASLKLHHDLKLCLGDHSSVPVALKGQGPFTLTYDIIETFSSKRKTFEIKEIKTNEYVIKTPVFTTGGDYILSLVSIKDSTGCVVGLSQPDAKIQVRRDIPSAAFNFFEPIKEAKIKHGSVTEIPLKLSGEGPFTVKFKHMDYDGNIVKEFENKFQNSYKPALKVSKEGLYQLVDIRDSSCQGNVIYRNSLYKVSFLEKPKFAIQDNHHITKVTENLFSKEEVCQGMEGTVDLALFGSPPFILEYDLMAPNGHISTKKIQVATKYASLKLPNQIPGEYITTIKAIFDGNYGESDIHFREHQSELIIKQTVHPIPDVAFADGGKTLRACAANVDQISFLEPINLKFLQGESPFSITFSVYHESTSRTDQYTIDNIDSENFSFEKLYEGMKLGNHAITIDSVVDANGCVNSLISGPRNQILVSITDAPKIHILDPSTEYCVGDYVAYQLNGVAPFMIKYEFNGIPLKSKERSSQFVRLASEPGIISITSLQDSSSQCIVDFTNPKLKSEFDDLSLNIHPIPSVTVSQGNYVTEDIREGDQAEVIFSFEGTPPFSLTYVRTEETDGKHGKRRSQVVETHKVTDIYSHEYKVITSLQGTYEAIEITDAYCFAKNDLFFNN

Target: TorsinA-GFP (human) (UniProt O14656)
Assay: co-IP

With Pom152 (from UniProt P39685 1-1337) the binding was “binds”.

B1: Mps3-HA (protein, UniProt P47069 1-682)
chain: MNNSNEHRREEAGAANEQMPYNKAVKSAYADVLKDKMNREQEISLRAIKKGIYTDGGETDNYDMDKENDSAYEMFKKNLDFPLDQHNDDDDDDPYIEDNGQETDGYSDEDYTDEADKSFIEDSDSDSYDLESNSDFEENLESSGEAKKLKWRTYIFYGGLFFVFYFFGSFLMTTVKNNDLESHSSGATSSPGKSFSNLQKQVNHLYSELSKRDEKHSSELDKTVKIIVSQFEKNIKRLLPSNLVNFENDINSLTKQVETISTSMSELQRRNHKFTVENVTQWQDQLVKQLDTHLPQEIPVVINNSSSLLIIPELHNYLSALISDVIESPGIGTAGSAESRWEYDLNRYVKEILSNELQYIDKDYFIQEMNRRLQSNKQEIWEEITNRLETQQQQQQQQVQQDYSNVPQQYSSILMKRLIHQIYNSNQHQWEDDLDFATYVQGTKLLNHLTSPTWRQGSGVQPIELLTDSKQSSSTYWQCENEPGCSWAIRFKTPLYLTKISYMHGRFTNNLHIMNSAPRLISLYVKLSQTKEIKALQTLANQYGFGQHHKRDRNYIKIAKFEYRLTDSRIRQQMYLPPWFIQLKPLVRSIVFQVDENYGNKKFISLRKFIINGVTPQDLQIIENNEFPVLLGDTPEYGVTQNTDEGKRKVLLSKPPYASSSTSTKFHPASNVPSFGQDELDQ
B1 was tested, and the binding was “binds”.
